# Data reported in PubChem BioAssay AID1347075 (National Center for Advancing Translational Sciences (NCATS), 2019).
# The whole screen tested about 400,000 compounds, of which about 5,500 (1.4%) were called active. Inconclusive means that the source gave no clear call. Such entries were picked first, then a sample of the others. Calls come from the whole dose curve; as a rule, active = well fitted cell-killing curve with a large enough effect; inconclusive = small, poorly fitted or top-dose-only effect, or effect the other way; inactive = flat fitted curve, though single readings scatter. Where the call is inconclusive, the potency comes from a doubtful curve fit.
# Test: qHTS assay for MDR1-selective chemotherapeutics: Primary screen using the parental adenocarcinoma cell KB-3-1; note: nearly all actives have a fitted effect of over 60% in size
# Conditions: KB-3-1 viability, CellTiter-Glo ATP luminescence, 72 h; activity change, negative = cytotoxic: at 46.1 µM (top of the series)
# Summary of the method: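 Parental KB-3-1 adenocarcinoma cells in phenol-red-free DMEM with 10% FBS were pin-treated with compounds at several concentrations, incubated 72 h at 37 °C, and viability read by CellTiter-Glo luminescence; concentration-effect curves were fitted after normalization.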
# % is set by controls: 0 for no effect and ±100 for the full control effect; potency is the fitted concentration of half-maximal effect.
Compound,Potency,"activity change, negative = cytotoxic"
CCOc1cc(N2CCOCC2)c(OCC)cc1NC(=O)c1ccccc1N1CCCC1=O,inactive,
CC1CCCCN1C(=O)c1ccc2c(c1)N(Cc1ccc(Cl)cc1)C(=O)c1ccccc1S2=O (stereo not drawn),"inconclusive: 11.6 µM [cytotoxic, partial curve]",
N=c1sc2ccccc2n1-c1ccccc1,"inconclusive: 23.1 µM [cytotoxic, single point]",
CCCN(CCC)C(C)C(=O)NCC1(c2ccccc2)CCCC1 (stereo not drawn),inactive,
CN(C1CCCCC1)S(=O)(=O)c1ccc(F)c(C(=O)Nc2ccc(C(F)(F)F)cc2)c1,"inconclusive: 14.6 µM [cytotoxic, single point]",
COc1cccc(C2=NOC(C(=O)NCc3ccco3)C2)c1 (stereo not drawn),active: 23.1 µM,
Cc1nc(NCCc2ccc(Cl)cc2)c2nnn(Cc3ccccc3)c2n1,inactive,
CC1(C(=O)Nc2ccc3c(c2)OCO3)CCN1C(=O)CC1CC1 (stereo not drawn),"inconclusive: 0.0052 µM [rising, full curve]",
O=c1cc(CN(Cc2ccccc2)Cc2ccccc2)c2c(ccc3ccccc32)o1,inactive,
CC(C)(C)c1ccc(C(=O)CSc2n[nH]c(=O)[nH]c2=O)cc1,"inconclusive: 11.6 µM [cytotoxic, partial curve]",
S=C(Nc1ccccc1)N1CCC(Cc2ccccc2)CC1,active: 11.6 µM,
O=C(c1ccc2c(c1)CCN2S(=O)(=O)c1ccc(Cl)cc1)N1CCN(c2ccccc2F)CC1,inactive,
Cc1ccc(-n2cc3c(-c4cccc(Br)c4)nnc(C)c3n2)cc1,"inconclusive: 29.1 µM [cytotoxic, single point]",
O=C(Nn1cnnc1)c1ccc(Cl)c([N+](=O)[O-])c1,"inconclusive: 20.6 µM [rising, partial curve, poor fit]",
COc1ccc(C)cc1NC(=O)CCNS(=O)(=O)c1ccc2c(c1)CCC(=O)N2,inactive,
COc1ccc(S(=O)(=O)N2CCC(NC(=O)Nc3ccc(C)cc3)CC2)cc1,inactive,
CN(C)c1ccc(CN2CCc3nc(N4CCN(c5ccccn5)CC4)ncc3C2)cc1,"inconclusive: 23.1 µM [cytotoxic, single point]",
COc1ccc(/C=N/NC(=O)c2ccn[nH]2)cc1COc1ccc(Cl)cc1,"inconclusive: 20 µM [cytotoxic, partial curve, poor fit]",
CCOC(=O)C1CCN(C(=O)c2nn(-c3ccc(C)cc3)c(=O)c3c2c2ccccc2n3C)CC1,inactive,
Cc1oc(-c2ccc(Cl)cc2)nc1CN1CCC(C(=O)N2CCN(Cc3ccccc3)CC2)CC1,"inconclusive: 16.4 µM [cytotoxic, single point]",
CCCNc1nc2nc3ccccn3c(=O)c2cc1C(=O)NCCN1CCOCC1,"inconclusive: 0.0046 µM [rising, full curve, poor fit]",
Cc1cccc2c(C(=O)Nc3ccc(Br)cc3)cc(-c3ccccn3)nc12,"inconclusive: 25.9 µM [cytotoxic, single point]",

# Entries shown so far containing an NH in an aromatic ring:
Compound,Potency,"activity change, negative = cytotoxic"
CC(C)(C)c1ccc(C(=O)CSc2n[nH]c(=O)[nH]c2=O)cc1,"inconclusive: 11.6 µM [cytotoxic, partial curve]",
COc1ccc(/C=N/NC(=O)c2ccn[nH]2)cc1COc1ccc(Cl)cc1,"inconclusive: 20 µM [cytotoxic, partial curve, poor fit]",

# Remaining list, next part

Compound,Potency,"activity change, negative = cytotoxic"
CC(C)(C)NC(=O)C[C@H]1C[C@H](C(=O)N2CCOCC2)[C@@]2(CCC3CCCC3)c3[nH]c4cc(-c5ccco5)ccc4c3CCN2C1=O,"inconclusive: 29.1 µM [cytotoxic, single point]",
CC(C)N(Cc1ccccc1)C(=O)c1cc2ccc3cccnc3c2[nH]1,"inconclusive: 18.4 µM [cytotoxic, single point]",
CC(=NN=C(C)c1ccc(O)cc1)c1ccc(O)cc1,"inconclusive: 32.6 µM [cytotoxic, single point]",
O=S(=O)(c1ccccc1C(F)(F)F)N1CCN(c2nc(-c3ccccc3)nc3ccccc23)CC1,,inconclusive: -83.2%
Cc1ccc(SC(=O)c2c(C)noc2-c2cc(C)on2)cc1,inactive,
CO[C@H]1C[C@@H]2CC[C@@H](C)[C@@](O)(O2)C(=O)C(=O)N2CCCC[C@H]2C(=O)O[C@H]([C@H](C)C[C@@H]2CC[C@@H](O)[C@H](OC)C2)CC(=O)[C@H](C)/C=C(\C)[C@@H](O)[C@@H](OC)C(=O)[C@H](C)C[C@H](C)/C=C/C=C/C=C/1C,"inconclusive: 32.6 µM [cytotoxic, partial curve, poor fit]",
Cc1nn2c(N3CCN(C)CC3)cc(C(C)(C)C)nc2c1-c1ccccc1,"inconclusive: 32.6 µM [cytotoxic, single point]",
COc1cc(OC)cc(C(=O)NC(C(=O)N2CCc3ccccc3C2)C(C)C)c1 (stereo not drawn),"inconclusive: 29.1 µM [cytotoxic, single point]",
O=C(CN1CCCCC1)Nc1ccc(NC(=O)c2ccc(Cl)cc2)cc1Cl,"inconclusive: 29.1 µM [cytotoxic, single point]",
COC(=O)c1cc(C(=O)Nc2nc3ccccc3[nH]2)cc([N+](=O)[O-])c1,inactive,
Cc1ccc(C(=O)C[n+]2ccc(Cc3ccccc3)cc2)cc1,active: 4.61 µM,
COCCNC(=O)CSc1nc2cc3c(cc2c(=O)n1CCCC(=O)NCCc1ccc(OC)c(OC)c1)OCO3,"inconclusive: 7.31 µM [rising, partial curve]",
CCN(CC)Cc1c(C(=O)N/N=C/c2ccc(C)o2)nnn1-c1nonc1N,,inconclusive: -1.57%
CCC(CC)C(=O)Nc1nnc(SCc2cc(=O)c3ccccc3[nH]2)s1,"inconclusive: 23.1 µM [cytotoxic, partial curve, poor fit]",
CCCCOc1ncnc2c1[nH]c1ccc(F)cc12,active: 18.4 µM,
COc1ccc(NC(=S)N2CCN(C(=O)C3CCCO3)CC2)cc1 (stereo not drawn),inactive,
CC(C)CC1Nc2ncnc(N3CCN(c4ccccn4)CC3)c2N(Cc2ccc(Br)cc2)C1=O (stereo not drawn),"inconclusive: 29.1 µM [cytotoxic, single point]",
Cc1cc(N2CCOCC2)nc2ccc(NC(=O)C3CCCCC3)cc12,"inconclusive: 29.1 µM [rising, single point]",
COc1ccccc1C(=O)NCCC(=O)Nc1cccc(C)n1,"inconclusive: 8.2 µM [rising, partial curve]",
Cc1onc(-c2ccccc2)c1CNS(=O)(=O)c1cccc(Br)c1,inactive,
O=C1CCCC(O)=C1C(C#Cc1ccccc1)C1=C(O)CCCC1=O,"inconclusive: 29.1 µM [cytotoxic, single point]",
